Record: PubChem BioAssay AID1259254 (NCATS, 2017)
The deposit covers about 59,000 reagents; shown is a random part of them. Over the whole deposit, about 1,550 (2.6%) got an active call. 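G2 share is only a proxy for re-replication; each gene was hit by three separate siRNAs, and active genes were retested.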 The numbers tell different reagents against one gene apart. Not all columns of the deposit are shown. Not given: the amount of reagent.

- Screen: 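Genome-wide screen for genes that prevent DNA re-replication in cancer cells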 (primary screen)
- Cell system: human HCT116 colorectal cancer cells
- Reagents: single siRNA against human genes
- Duration: 3 days
- Read-out: 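Imaged Hoechst DNA stain sorts each cell into a cycle phase by DNA amount; per plate, G2 fraction set to 0% for non-targeting and 100% for GMNN siRNA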
- Reading the numbers: G2 robust z-score and G2 cells, % of GMNN control: higher = more G2 cells, more excess DNA replication
- Call rule: 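Active siRNAs have a G2 robust z of 5 or more median absolute deviations over the median, which in these data means about 38% or higher of GMNN control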

TOM1 (target of myb1 membrane trafficking protein) #1 — G2 robust z-score: -0.697; G2 cells, % of GMNN control: -1.93; call: inactive
TOM1 (target of myb1 membrane trafficking protein) #2 — G2 robust z-score: -0.707; G2 cells, % of GMNN control: -2; call: inactive
TOM1 (target of myb1 membrane trafficking protein) #3 — G2 robust z-score: -0.00756; G2 cells, % of GMNN control: 2.91; call: inactive
MRS2 (magnesium transporter MRS2) #1 — G2 robust z-score: 1.35; G2 cells, % of GMNN control: 12.5; call: inactive
MRS2 (magnesium transporter MRS2) #2 — G2 robust z-score: 0.741; G2 cells, % of GMNN control: 8.18; call: inactive
MRS2 (magnesium transporter MRS2) #3 — G2 robust z-score: -0.462; G2 cells, % of GMNN control: -0.283; call: inactive
IGHMBP2 (immunoglobulin mu DNA binding protein 2) #1 — G2 robust z-score: -0.402; G2 cells, % of GMNN control: 0.137; call: inactive
IGHMBP2 (immunoglobulin mu DNA binding protein 2) #2 — G2 robust z-score: 0.147; G2 cells, % of GMNN control: 4; call: inactive
IGHMBP2 (immunoglobulin mu DNA binding protein 2) #3 — G2 robust z-score: 0.443; G2 cells, % of GMNN control: 6.09; call: inactive
CYP3A5 (cytochrome P450 family 3 subfamily A member 5) #1 — G2 robust z-score: -0.544; G2 cells, % of GMNN control: -0.862; call: inactive
CYP3A5 (cytochrome P450 family 3 subfamily A member 5) #2 — G2 robust z-score: -1.03; G2 cells, % of GMNN control: -4.26; call: inactive
CYP3A5 (cytochrome P450 family 3 subfamily A member 5) #3 — G2 robust z-score: -1.11; G2 cells, % of GMNN control: -4.83; call: inactive
SYT14P1 (synaptotagmin 14 pseudogene 1) #1 — G2 robust z-score: 2.63; G2 cells, % of GMNN control: 21.5; call: inactive
SYT14P1 (synaptotagmin 14 pseudogene 1) #2 — G2 robust z-score: -0.485; G2 cells, % of GMNN control: -0.445; call: inactive
SYT14P1 (synaptotagmin 14 pseudogene 1) #3 — G2 robust z-score: -0.632; G2 cells, % of GMNN control: -1.48; call: inactive
RNF186 (ring finger protein 186) #1 — G2 robust z-score: 0.0737; G2 cells, % of GMNN control: 3.49; call: inactive
RNF186 (ring finger protein 186) #2 — G2 robust z-score: -0.139; G2 cells, % of GMNN control: 1.99; call: inactive
RNF186 (ring finger protein 186) #3 — G2 robust z-score: 1.47; G2 cells, % of GMNN control: 13.3; call: inactive
APBB3 (amyloid beta precursor protein binding family B member 3) #1 — G2 robust z-score: -0.12; G2 cells, % of GMNN control: 2.12; call: inactive
APBB3 (amyloid beta precursor protein binding family B member 3) #2 — G2 robust z-score: -0.227; G2 cells, % of GMNN control: 1.37; call: inactive
APBB3 (amyloid beta precursor protein binding family B member 3) #3 — G2 robust z-score: -1.46; G2 cells, % of GMNN control: -7.29; call: inactive
TDO2 (tryptophan 2,3-dioxygenase) #1 — G2 robust z-score: 6.5; G2 cells, % of GMNN control: 48.7; call: active
TDO2 (tryptophan 2,3-dioxygenase) #2 — G2 robust z-score: 0.279; G2 cells, % of GMNN control: 4.93; call: inactive
TDO2 (tryptophan 2,3-dioxygenase) #3 — G2 robust z-score: 1.41; G2 cells, % of GMNN control: 12.9; call: inactive

Records above marked active:
TDO2 (tryptophan 2,3-dioxygenase) #1 — G2 robust z-score: 6.5; G2 cells, % of GMNN control: 48.7; call: active
